Results from PubChem BioAssay AID1671190 (National Center for Advancing Translational Sciences (NCATS), 2021).
In all, about 580,000 compounds went through this assay and about 6,100 (1.1%) were called active. Inconclusive means that the source gave no clear call. Such entries were picked first, then a sample of the others. Calls come from the whole dose curve; as a rule, active = well fitted inhibition curve with a large enough effect; inconclusive = small, poorly fitted or top-dose-only effect, or another doubt; inactive = no such curve, though single readings can be large or run the other way. Potencies beside an inconclusive call are fits to weak or partial responses and may not hold up.
Potency is the fitted concentration of half-maximal effect.

Amino acid sequences for entries named in this document (tags omitted). A change or cut given only in a name is not applied to a line headed by its entry.
UniProt P18054: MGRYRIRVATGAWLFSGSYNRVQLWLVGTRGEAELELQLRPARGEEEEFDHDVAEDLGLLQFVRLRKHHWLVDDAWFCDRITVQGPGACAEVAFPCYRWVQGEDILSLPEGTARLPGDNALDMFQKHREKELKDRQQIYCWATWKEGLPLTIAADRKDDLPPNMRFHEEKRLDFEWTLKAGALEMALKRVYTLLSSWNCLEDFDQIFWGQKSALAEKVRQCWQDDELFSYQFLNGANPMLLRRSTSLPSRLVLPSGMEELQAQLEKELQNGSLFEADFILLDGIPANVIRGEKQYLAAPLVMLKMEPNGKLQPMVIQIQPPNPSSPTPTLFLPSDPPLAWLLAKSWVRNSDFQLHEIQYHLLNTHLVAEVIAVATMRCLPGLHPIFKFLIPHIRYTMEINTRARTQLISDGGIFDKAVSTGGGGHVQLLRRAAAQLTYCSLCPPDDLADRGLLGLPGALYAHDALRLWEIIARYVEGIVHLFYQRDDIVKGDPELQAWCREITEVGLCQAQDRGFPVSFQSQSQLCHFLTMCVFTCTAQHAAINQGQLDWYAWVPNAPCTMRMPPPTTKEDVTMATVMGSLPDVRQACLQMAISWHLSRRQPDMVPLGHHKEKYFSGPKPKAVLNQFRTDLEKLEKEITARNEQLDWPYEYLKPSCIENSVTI

Each molecule was assayed against Polyunsaturated fatty acid lipoxygenase ALOX12 (Homo sapiens) (UniProt P18054) (assay: Primary qHTS assay for inhibitors of human arachidonate 12S-lipoxygenase (ALOX12): Round 2). Conditions: purified 12hLO, xylenol orange hydroperoxide absorbance; series mostly up to 108 µM.
How it was run: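 Purified human 12hLO at 150 nM in 25 mM Hepes, 0.01% Triton X-100, pH 7.0, preincubated 15 min at room temperature with compound. Reaction started with 40 uM arachidonic acid, 30 min at room temperature. Hydroperoxide measured by Fe-xylenol orange, 573/405 nm absorbance ratio.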
In the case of `O=C(CSc1nnc(-c2ccco2)o1)c1ccccc1Cl`, the Potency is reported as “inactive”.
In the case of `Cn1c(=O)c2c(nc(NCC3CCCO3)n2C)n(C)c1=O` (centres undefined), the Potency is reported as “inactive”.
For `Cc1cc(Cl)ccc1N1C(=O)CC(NNC(=O)c2cccnc2)C1=O` (centres undefined), the Potency was inconclusive: 44.7 µM [inhibitor, partial curve, poor fit].
In the case of `CCN(CC)c1cccc(OCC(=O)N2c3ccccc3CC2C)c1` (centres undefined), the Potency is reported as inconclusive: 112 µM [inhibitor, single point].
For `COc1cc(C#N)ccc1OC(=O)Cc1coc2ccc3ccccc3c12`, the Potency was “inactive”.
With `O=C(Nc1nccs1)c1cc(-c2ccc(F)cc2)nc2ccccc12` the Potency was inconclusive: 12.6 µM [inhibitor, full curve, poor fit].
With `Fc1ccc(COc2ccc(Br)cc2CNCc2ccncc2)cc1` the Potency was inconclusive: 20 µM [inhibitor, full curve].
With `Cn1c(=O)oc2cc(S(=O)(=O)NC(Cc3ccccc3)C(=O)NCc3ccccc3Cl)ccc21` (centres undefined) the Potency was inconclusive: 141 µM [inhibitor, partial curve, poor fit].
In the case of `O=C(NCCc1ccccc1)c1ccc2c(c1)OCCCO2`, the Potency is reported as inconclusive: 39.8 µM [inhibitor, partial curve, poor fit].
With `CCOC(=O)C1=CN(Cc2cccc(-c3ccc(F)cc3)c2)S(=O)(=O)N(C)C1C` (centres undefined) the Potency was “inactive”.
For `COc1ccc(/C=C/c2nc(-c3ccccc3O)n[nH]2)cc1OC`, the Potency was inconclusive: 50.1 µM [inhibitor, partial curve, poor fit].
`COc1ccc(NC(=O)N[C@@H]2C=C[C@@H](c3c(C)nn(CCC#N)c3C)C2)cc1` was tested, and the Potency was inconclusive: 50.1 µM [inhibitor, partial curve, poor fit].
`COC(=O)c1ccc(/C=C2/SC(=S)N(CCCC(=O)Nc3ccc(O)cc3)C2=O)cc1` was tested, and the Potency was inconclusive: 141 µM [inhibitor, single point].
In the case of `S=c1[nH]nc(-c2ccc3ccccc3n2)n1-c1ccccc1Cl`, the Potency is reported as inconclusive: 79.4 µM [inhibitor, partial curve, poor fit].
In the case of `CCOC(=O)c1cccc(Nc2nc(C)cc(C)n2)c1`, the Potency is reported as inconclusive: 35.5 µM [inhibitor, partial curve, poor fit].
With `O=C(O)CSc1ncnc2sc3c(c12)CCCC3` the Potency was “inactive”.
For `O=C(Cc1ccc(Br)cc1)Nc1ccc(Cl)cc1`, the Potency was inconclusive: 5.01 µM [inhibitor, full curve, poor fit].
With `Cc1cc(C)cc(N(C(=O)CNC(=O)c2ccco2)C(C(=O)NC2CCCC2)c2ccncc2)c1` (centres undefined) the Potency was “inactive”.
In the case of `Cc1ccc(CSC2=Nc3ccccc3C3=NC(CC(=O)NCc4ccc5c(c4)OCO5)C(=O)N23)cc1` (centres undefined), the Potency is reported as inconclusive: 25.1 µM [inhibitor, partial curve].
In the case of `CN1CCN(CCNC(=O)Cc2ccc(C(F)(F)F)cc2)CC1`, the Potency is reported as inconclusive: 31.6 µM [inhibitor, partial curve, poor fit].
For `O=C1C2CC=CCC2C(=O)N1CC1CCCO1` (centres undefined), the Potency was “inactive”.
With `O=C(Cc1ccccc1)Nc1cccc(-c2nnc(-c3ccco3)o2)c1` the Potency was “inactive”.
For `CCOc1ccc(Nc2oc(-c3cccc(Cl)c3)nc2C#N)cc1`, the Potency was inconclusive: 112 µM [inhibitor, single point].
With `CN(Cc1cnn(C)c1)C(=O)c1nn(-c2ccccc2)c(=O)c2ccccc12` the Potency was “inactive”.
For `CS(=O)(=O)Nc1cccc(-c2ccc3ncnc(NCc4cccs4)c3c2)c1`, the Potency was inconclusive: 44.7 µM [inhibitor, partial curve, poor fit].
`CCN(CC)CCCC(C)NCC1CC2C=CC1C2` (centres undefined) was tested, and the Potency was inconclusive: 0.501 µM [inhibitor, full curve, poor fit].
With `Cn1c(N)c(S(=O)(=O)c2ccc(Br)cc2)c2nc3ccccc3nc21` the Potency was “inactive”.
`COc1ccccc1OCCCc1c(C)n[nH]c1C` was tested, and the Potency was “inactive”.
With `Cc1cc(-n2c(C)cc(C(=O)CSc3ccccn3)c2C)no1` the Potency was “inactive”.
For `Cc1ccc(C(=O)N2CCC3(CC2)NC(=O)N(c2cccc(Cl)c2)N3)c(C)c1`, the Potency was active: 1.41 µM.
`COc1cccc(NC(=O)CN(C)C(=O)c2c(C)noc2C)c1` was tested, and the Potency was inconclusive: 100 µM [inhibitor, single point].
`COc1ccc(CNc2nc(-c3ccoc3)nc3ccccc23)c(OC)c1` was tested, and the Potency was inconclusive: 5.62 µM [inhibitor, partial curve, poor fit].
In the case of `CCCCN(C)C(=O)c1ccc(Nc2nc(C(N)Cc3ccc(C(F)(F)F)cc3)cs2)nc1` (centres undefined), the Potency is reported as inconclusive: 70.8 µM [inhibitor, single point].
In the case of `COc1ccc(/C(C)=C(\C#N)C(=O)OC(C)C)cc1OC`, the Potency is reported as inconclusive: 39.8 µM [inhibitor, partial curve, poor fit].
In the case of `COc1ccc(N2CCN(C(=O)c3cn(C)c(=O)c4c3c3ccccc3n4C)CC2)cc1`, the Potency is reported as inconclusive: 89.1 µM [inhibitor, partial curve, poor fit].
In the case of `COc1ccc(N2CCN(C(=O)c3cnn(-c4ccc(OC)cc4)c3C3CCN(C(=O)OC(C)(C)C)CC3)CC2)cc1`, the Potency is reported as inconclusive: 56.2 µM [inhibitor, partial curve, poor fit].
For `O=C(Cc1cccs1)N(Cc1ccco1)C1CC1`, the Potency was active: 14.1 µM.
For `O=C(NC1(C(=O)O)CCCCC1)C1CCC1`, the Potency was “inactive”.
With `Cc1ccc(S(=O)(=O)N2CCC(n3c(C)nc4cccnc43)CC2)cc1` the Potency was inconclusive: 79.4 µM [inhibitor, partial curve, poor fit].
`Cc1cc(F)ccc1C(=O)N1C[C@@H](CN2CCCCC2)[C@@H](CO)C1` was tested, and the Potency was “inactive”.
With `CCCn1nc(C(=O)OCc2nc(-c3ccccc3)no2)c2ccccc2c1=O` the Potency was inconclusive: 0.631 µM [inhibitor, full curve, poor fit].
`C=CCSc1nnc(Cc2cc(=O)[nH]c(=O)[nH]2)n1-c1cc(C)ccc1C` was tested, and the Potency was inconclusive: 28.2 µM [inhibitor, partial curve, poor fit].
For `Cc1ccc2c(c1)SC(C(=O)O)C2` (centres undefined), the Potency was “inactive”.
With `CCc1ccc2c(Cn3cc(S(=O)(=O)N(C)C)ccc3=O)cc(=O)oc2c1` the Potency was inconclusive: 50.1 µM [inhibitor, partial curve, poor fit].
